One data set addresses T1, human OATP1B3 (hOATP1B3) (Homo sapiens, UniProt Q9NPD5).
T1 sequence (Q9NPD5 1-702): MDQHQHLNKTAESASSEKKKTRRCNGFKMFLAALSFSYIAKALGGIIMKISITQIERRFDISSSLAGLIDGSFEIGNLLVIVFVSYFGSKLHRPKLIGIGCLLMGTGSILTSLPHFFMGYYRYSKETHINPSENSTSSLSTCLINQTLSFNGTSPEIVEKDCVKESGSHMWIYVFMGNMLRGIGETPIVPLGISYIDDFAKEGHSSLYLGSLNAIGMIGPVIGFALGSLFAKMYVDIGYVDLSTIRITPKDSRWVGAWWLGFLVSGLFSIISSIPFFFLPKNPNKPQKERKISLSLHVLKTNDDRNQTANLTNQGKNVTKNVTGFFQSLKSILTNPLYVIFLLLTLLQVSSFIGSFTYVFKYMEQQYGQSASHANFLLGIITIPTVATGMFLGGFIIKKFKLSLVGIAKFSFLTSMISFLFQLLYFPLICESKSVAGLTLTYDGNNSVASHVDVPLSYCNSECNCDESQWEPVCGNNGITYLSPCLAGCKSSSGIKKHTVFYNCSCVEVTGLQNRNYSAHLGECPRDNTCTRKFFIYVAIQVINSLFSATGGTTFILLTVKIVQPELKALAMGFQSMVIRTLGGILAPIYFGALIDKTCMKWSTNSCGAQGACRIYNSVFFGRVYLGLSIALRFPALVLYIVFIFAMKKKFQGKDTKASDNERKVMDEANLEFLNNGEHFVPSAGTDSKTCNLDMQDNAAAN
The note with it: pH 7.4.

The target in a further data set is T2, human OATP1B1 (hOATP1B1) (Homo sapiens, UniProt Q9Y6L6).
T2 sequence (Q9Y6L6 1-691): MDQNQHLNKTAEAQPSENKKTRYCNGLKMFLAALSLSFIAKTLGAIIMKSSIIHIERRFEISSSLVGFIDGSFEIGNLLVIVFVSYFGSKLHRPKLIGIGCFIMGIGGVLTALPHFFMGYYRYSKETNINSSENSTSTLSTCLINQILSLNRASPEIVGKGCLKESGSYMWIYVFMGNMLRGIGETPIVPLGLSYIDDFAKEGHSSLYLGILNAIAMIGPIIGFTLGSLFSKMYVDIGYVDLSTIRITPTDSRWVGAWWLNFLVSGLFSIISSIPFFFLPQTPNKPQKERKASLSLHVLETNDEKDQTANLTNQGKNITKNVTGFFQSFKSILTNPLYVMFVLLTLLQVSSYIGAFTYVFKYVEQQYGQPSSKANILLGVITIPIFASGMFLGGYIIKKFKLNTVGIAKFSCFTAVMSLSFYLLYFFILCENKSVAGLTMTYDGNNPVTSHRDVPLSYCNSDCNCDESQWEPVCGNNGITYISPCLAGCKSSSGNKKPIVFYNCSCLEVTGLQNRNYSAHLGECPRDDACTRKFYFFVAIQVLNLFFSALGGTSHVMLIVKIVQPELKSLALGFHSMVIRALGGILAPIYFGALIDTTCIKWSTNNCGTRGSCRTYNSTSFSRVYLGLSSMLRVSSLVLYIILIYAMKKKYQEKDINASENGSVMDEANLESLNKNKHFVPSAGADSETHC
The settings on record: pH 7.4.

Consider 1 molecule from patent publication US20260137774A1, “Hepatitis B Virus Receptor OATP and Use Thereof” (priority 2022, published 2026).

Each structure is given as a SMILES string.

For the molecule `CC(C)c1c(C(=O)Nc2ccccc2)c(-c2ccccc2)c(-c2ccc(F)cc2)n1CC[C@@H](O)C[C@@H](O)CC(=O)O` [atorvastatin], the “uptake ratio of drug substrate” value on human OATP1B3 (hOATP1B3) is reported as 8.58; on human OATP1B1 (hOATP1B1), 6.32.
